Changes are numbered by the printed parent chain. For some of these results: Negatives hold for the conditions tested. For some of these results: Protein sequences can lack the tags named with them. For some of these results: Construct, isoform or probe ends are uncertain for at least one entry. For some of these results: A weaker result is weaker than the reference pair of the same experiment.

Holding throughout (assay): EMSA
Background: In EMSA bound probe runs differently from free probe, usually more slowly.

Data set [1] deals with T1, MprA(D51E) (Corynebacterium glutamicum ATCC 13032).
T1 sequence (looked up): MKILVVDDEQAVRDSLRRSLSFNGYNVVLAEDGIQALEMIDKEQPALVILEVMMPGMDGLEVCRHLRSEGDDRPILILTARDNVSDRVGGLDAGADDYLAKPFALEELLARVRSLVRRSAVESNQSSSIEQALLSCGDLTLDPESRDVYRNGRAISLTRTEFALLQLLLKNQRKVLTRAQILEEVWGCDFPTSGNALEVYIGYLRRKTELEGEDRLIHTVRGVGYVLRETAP
To be noted: Buffer P: 50 mM Tris-HCl pH 7.5, 50 mM KCl, 10 mM MgCl2, 0.5 mM EDTA, 10% glycerol; 30 min at 20 C; DNA 25-107 nM, protein 0-64-fold molar excess; 6% native PAGE; recombinant protein; residues 1-232; protein details: C-terminal His6; probe letters rebuilt from the primers and the genome.

The subject of data set [2] is T2, MprA, unphosphorylated (Corynebacterium glutamicum ATCC 13032).
T2 sequence (looked up): T1 sequence (looked up) with E51D
To be noted: no acetylphosphate; Buffer P: 50 mM Tris-HCl pH 7.5, 50 mM KCl, 10 mM MgCl2, 0.5 mM EDTA, 10% glycerol; 30 min at 20 C; DNA 25-107 nM, protein 0-64-fold molar excess; 6% native PAGE; recombinant protein; residues 1-232; protein details: C-terminal His6; probe letters rebuilt from the primers and the genome.

Data set [3] has as its target MprA, phosphorylated with acetylphosphate (Corynebacterium glutamicum ATCC 13032) (UniProt H7C6D1). The note with it: acetylphosphate; Buffer P: 50 mM Tris-HCl pH 7.5, 50 mM KCl, 10 mM MgCl2, 0.5 mM EDTA, 10% glycerol; 30 min at 20 C; DNA 25-107 nM, protein 0-64-fold molar excess; 6% native PAGE; recombinant protein; protein details: C-terminal His6; probe letters rebuilt from the primers and the genome.

Data set [4] deals with T3, MprA(D51N) (Corynebacterium glutamicum ATCC 13032).
T3 sequence (looked up): T1 sequence (looked up) with E51N
The note with it: Buffer P: 50 mM Tris-HCl pH 7.5, 50 mM KCl, 10 mM MgCl2, 0.5 mM EDTA, 10% glycerol; 30 min at 20 C; DNA 25-107 nM, protein 0-64-fold molar excess; 6% native PAGE; recombinant protein; residues 1-232; protein details: C-terminal His6; probe letters rebuilt from the primers and the genome.

On to “AGAGGATCCGATCGAGAAGTCGCGCCGGGATCCAGACGATGTGAACAAGGCGCTGGCGGCGGCGGATATGTATGTGTTGATGAATCAGCCGGACACAGCGCTCGCGCACCTTGCAGCACTATTGCCAAAACCGGAGGCTGCCCGGCGGATCGTGGAGTTGCTGAACTTGTTTGATCCGCTGGACCTGGTCGCATTGGAAATCAGGGCGCAGGTGGGGAATGCAATGAGCTAAGAAAACACTTTAAATATTCTAAGAAACAGTTCAAGTTTTGCTGTAGTTTAGATATGACAAGGCAATGACACAAGGAGACAA (double strand) [cg0793 promoter]”, for which the binding result in data set [1] is recorded as “binds”.

In the case of “CGATACCCTTTTCGTCTTCCAGTCCGTGACAGACTTCCTCCCAATTAAGACGTCCACGCGTTGGAACATATTTCACTTATGCTAACACCTCTTAAGCATAAAGAAGCCAGTTACCTCCTCATTTTAAGAGAAGATAACTGGCTCTTGTTAAATTCTTACCTACAAAAGGTTGTAGGCGATGAATTTAAGGTTTAGAACTGCTCTACGTCCACGAGACCGAGCTGTGCTGCCTTAACCAGACGGCGTGGGATGCGAACGGTCTGACCGTCGATCTTGACCTCCTGAAGGGCGACATTGTCG (double strand) [mprA promoter]”, the binding result in data set [2] is recorded as “binds more weakly”; in data set [3] it was “binds”.

As for “TAATCGCGATGGCACCAGTGGAGCCGTTGCCATTGGTGGTGGCAGCCAAAGTGGTTAGCAGCTGGCCAGTCATTTCATCCGGGGCGGGGAGACCGAACTCGGCGGCGTCTTCACGAGCGCGCGCTACAGCAGCGTCGGTTTCAGTAGTGGACTCGACATAAGTGCGAAGATACTCGAAGGCGTTACTCACGCGTTATAGTCTAGAGCGAGCAGGCGAGATGTGAAGTACCTACACGCATTAAGTGCAAATGAATTCACAATTGCCAGAAGATGCACAGGATGTAATCTAGATTTCCCAAGTTCAGTGGGGCAAA (double strand) [sigE promoter]”, the values for the binding result in data set [1] and in data set [4] were “binds” and “no binding”, respectively.

Consider “GATTTGATTATGAACCCTGTGGCTGGGGCGTCACTCTAAGTAGTCTGAACACTTCCTGTGAGCTCTTTAGTGGTTTAATCATCGACATTTTCGAACCCGCTGCGAATGGGTTCCCCTGGCAAATCAATAGTGATTCTCGTTCCGCCATCATCTGATTCACCCACAACGAGTTGGCCACCATGCCGATTCACAACCTGATTCACGATGGCAAGACCTAATCCCGATCCCGGCATGGAACGGGAGCTGACGGCGCGATAGAACCGTTCCAAAACTAATCCTCGTTCTTTTTCAGCAATTCCAGGCCCT (double strand) [htrA promoter]”, for which the results for the binding result in data set [1] and in data set [4] were “binds” and “no binding”, respectively.

The values are drawn from paper PMC12113857.
